Laboratory results: PubChem BioAssay AID493014 (National Center for Advancing Translational Sciences (NCATS), 2011)
Some of the results follow. The main result of the screen is listed elsewhere. These columns were measured beside it and carry no call. The list favours compounds with an active or inconclusive main result. Words in brackets tell the shape of the fitted curve; partial curves, single points and poor fits give uncertain potencies.

Assay: qHTS Assay to Find Inhibitors of Chronic Active B-Cell Receptor Signaling
Conditions: ABC-DLBCL IkBa-CBG/CBR reporter, luminescence ratio (green luciferase fused to IkBa over red control in TMD8 lymphoma cells), 4 h; measured here: CBR red luminescence, cell number
Summary of the method: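 Compounds up to 46 uM were incubated four hours with TMD8 cells whose green CBG68 luciferase is fused to IkappaBalpha; red CBR luminescence normalised the signal, and concentration-effect curves were fitted to fusion, red and ratio data.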

SMILES | AC50
Cc1cccc(CSc2ccc(-c3ccco3)nn2)c1 | 1.03 µM [rising, full curve]
Cc1nc2oc3ccc(Cl)cc3c(=O)c2cc1C(=O)O | 20 µM [falling, single point]
CCC(CC)CN1C(Nc2ccccc2)=NC[C@@H]1CC(C)C | 35.5 µM [falling, single point]
COc1cc(CN2CCC(n3nccc3NC(=O)c3ccccc3OC)CC2)ccc1F | 35.5 µM [falling, single point]
COc1cc(/C=N/NC(=O)C(=O)/C=C2\NC3(CCCC3)Cc3ccccc32)ccc1O | 9.2 µM [rising, partial curve, poor fit]
O=C(NN1CCOCC1)c1cc(S(=O)(=O)Nc2cccc(C(F)(F)F)c2)ccc1Cl | 0.82 µM [rising, full curve, poor fit]
COc1ccc(N(C(=O)c2cccnc2)S(=O)(=O)c2ccc(F)cc2)cc1 | 35.5 µM [falling, single point]
O=C1N/C(=N\N=C\c2ccco2)SC1Cc1ccccc1[N+](=O)[O-] (stereo unspecified) | 11.2 µM [falling, partial curve, poor fit]
COC(=O)c1sc(S(=O)(=O)N2CCN(CCO)CC2)c(C(=O)OC)c1C | 35.5 µM [rising, single point]
COc1ccc(NC(C)c2ccccc2)cc1 (stereo unspecified) | 2.51 µM [rising, full curve, poor fit]
Nc1nc(-c2ccc(Oc3ccccc3)cc2)cs1 | 0.447 µM [rising, full curve, poor fit]
CCc1c(C)nc2[nH]nc(-c3ccccc3)n2c1=O | 4.47 µM [falling, partial curve, poor fit]
C=CCNCCOCCOc1ccc(Cl)cc1C(C)(C)C | 29.1 µM [falling, single point]
COc1cccc2c1OCC(C(=O)NCc1ccc(Cl)cc1Cl)=C2 | 29.1 µM [falling, single point]
CCN1CCN(c2ccc(S(=O)(=O)N3CCCCC3)cc2NC(=O)/C=C/c2ccc(OC)c(OC)c2)CC1 | 6.51 µM [rising, single point]
O=C(Nc1cccs1)Nc1ccccc1Br | 3.98 µM [falling, full curve, poor fit]
Cc1ccc(CCC(=O)Nc2ccccc2C(=O)O)o1 | 7.08 µM [falling, partial curve, poor fit]
N#CCSc1nc2ccccc2c2nc3ccccc3n12 | 0.92 µM [falling, full curve]
c1csc(-c2csc3ncnc(NCCCN4CCOCC4)c23)c1 | 25.9 µM [falling, single point]
S=c1[nH]c2ccc3ccccc3c2[nH]1 | 3.55 µM [rising, partial curve, poor fit]
COc1ccc(C2(C)NC(=O)N(CC(=O)Nc3ccc4c(c3)CCC4)C2=O)cc1OC (stereo unspecified) | 25.9 µM [rising, single point]

Reformatted with tabs: entries from further up
SMILES	AC50
COC(=O)c1sc(S(=O)(=O)N2CCN(CCO)CC2)c(C(=O)OC)c1C	35.5 µM [rising, single point]
S=c1[nH]c2ccc3ccccc3c2[nH]1	3.55 µM [rising, partial curve, poor fit]

Next part

SMILES | AC50
COc1ccc(-c2oc3ncn4nc(Cc5ccccc5)nc4c3c2-c2ccc(OC)cc2)cc1 | 0.146 µM [rising, full curve, poor fit]
O=c1[nH]c(SCc2nc3ccccc3n2Cc2ccccc2)nc2ccccc12 | 13 µM [rising, partial curve, poor fit]
Cc1[nH]c2ccccc2c1-c1csc(NC(=O)CSCC(=O)O)n1 | 11.2 µM [falling, partial curve]
CCCC(=O)c1ccc(N2CCN(C(=O)c3ccccc3)CC2)c(F)c1 | 20.6 µM [falling, single point]
COc1ccc2oc(C(=O)N(C)Cc3ccc4c(c3)OCCO4)c(C)c2c1 | 32.6 µM [rising, partial curve, poor fit]
Cc1ccc(CCNC(=O)C23CN(Cc4ccccc4)CC2C(c2ccc([N+](=O)[O-])cc2)=NO3)cc1 (stereo unspecified) | 0.562 µM [rising, full curve, poor fit]
Cc1cc2occ(CC(=O)N(C)CC(=O)Nc3c(C)cccc3C)c2cc1C | 0.461 µM [rising, full curve, poor fit]
CCN(CC)S(=O)(=O)c1ccc(N2CCCC2)c(NC(=O)Cc2ccc(OC)cc2)c1 | 15.8 µM [rising, single point]
CCOC(=O)Cc1csc(NC(=O)NC2(C(F)(F)F)Oc3ccccc3O2)n1 | 16.4 µM [falling, partial curve]
COC(=O)c1sccc1S(=O)(=O)N(CC(=O)Nc1ccccc1)c1ccccc1 | 10 µM [falling, partial curve, poor fit]
Cc1cc(C)c(OCC(=O)Nc2ccccn2)c([N+](=O)[O-])c1 | 23.1 µM [rising, partial curve, poor fit]
Cc1ccc(/C=C2/Sc3ccccc3N(CC(=O)NCC3CCCO3)C2=O)cc1 (stereo unspecified) | 7.08 µM [rising, partial curve, poor fit]
C[C@H](NS(=O)(=O)c1c(Cl)cccc1Cl)C(=O)NNC(=O)COc1ccccc1F | 25.9 µM [falling, single point]
COc1ccc(-n2c(Cc3cccn3C)nnc2SCC(=O)Nc2ccc(C(C)=O)cc2)cc1 | 0.0058 µM [falling, full curve, poor fit]
Fc1ccccc1CNCCC(Cc1ccccc1)c1ccc2c(c1)OCO2 (stereo unspecified) | 20.6 µM [falling, partial curve]
CCNC(=S)N/N=C1\C(=O)c2cccc3cccc1c23 | 13 µM [rising, single point]
COC(=O)c1cc(-c2ccc(Cl)cc2Cl)n[nH]1 | 15.8 µM [rising, partial curve, poor fit]
COc1cccc(C(=O)NC(=S)Nc2nnn(C)n2)c1 | 20.6 µM [falling, partial curve]
Cc1nn(C(=O)c2ccoc2C)c(N)c1-c1ccccc1 | 0.366 µM [rising, full curve]
CCCCN(CCCC)C(=O)C1(P(=O)(c2ccccc2)c2ccccc2)CCC1 | 17.8 µM [falling, partial curve, poor fit]
